Drawing on PMC3979232, this text covers binding for one substance.

By UniProt entry, the sequences of proteins in these tests, tags left out. Where a name states a change or a piece, a line headed by the entry shows the natural chain unless it says otherwise.
UniProt A2AM29: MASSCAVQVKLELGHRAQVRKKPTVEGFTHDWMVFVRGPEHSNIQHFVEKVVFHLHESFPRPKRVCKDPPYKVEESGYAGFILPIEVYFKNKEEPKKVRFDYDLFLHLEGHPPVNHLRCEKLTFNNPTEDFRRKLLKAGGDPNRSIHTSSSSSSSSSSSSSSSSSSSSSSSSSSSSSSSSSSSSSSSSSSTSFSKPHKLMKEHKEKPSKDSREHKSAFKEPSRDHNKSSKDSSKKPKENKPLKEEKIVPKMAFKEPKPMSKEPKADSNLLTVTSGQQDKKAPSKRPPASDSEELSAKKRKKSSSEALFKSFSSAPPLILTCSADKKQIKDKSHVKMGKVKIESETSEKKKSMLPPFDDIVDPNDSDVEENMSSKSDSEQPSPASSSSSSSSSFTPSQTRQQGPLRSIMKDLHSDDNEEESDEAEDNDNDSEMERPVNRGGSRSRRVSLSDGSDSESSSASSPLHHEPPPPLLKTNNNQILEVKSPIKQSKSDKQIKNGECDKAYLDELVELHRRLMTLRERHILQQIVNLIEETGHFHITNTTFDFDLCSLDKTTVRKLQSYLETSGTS
UniProt Q9CQJ4: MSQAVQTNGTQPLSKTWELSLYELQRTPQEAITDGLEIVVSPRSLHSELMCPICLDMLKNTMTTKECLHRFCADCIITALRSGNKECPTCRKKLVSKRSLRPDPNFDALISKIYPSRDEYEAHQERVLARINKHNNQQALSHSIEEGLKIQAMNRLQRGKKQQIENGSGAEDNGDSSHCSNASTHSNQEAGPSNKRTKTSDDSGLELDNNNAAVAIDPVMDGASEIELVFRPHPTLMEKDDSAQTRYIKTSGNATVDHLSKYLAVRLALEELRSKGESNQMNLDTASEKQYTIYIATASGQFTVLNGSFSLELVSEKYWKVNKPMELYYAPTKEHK

The target in the assay is GST–Af9-(397–557) fusion protein (UniProt A2AM29). In words: pull-down; bead-bound (glutathione-Sepharose 4B) GST or GST–Af9-(397–557) incubated with in vitro translated full-length Rnf2 overnight at 4°C in 20 mM Tris pH 8.0, 150 mM KCl, 1 mM EDTA, 4 mM MgCl2, 0.2% Nonidet P40, 10% glycerol; immunoblot with anti-Rnf2 antibody; only the target purified.

These are yes or no findings as the source states them, for the method shown. Binding seen in cells or lysates may run through a third protein. Binding calls can cover weak binding; strength is not graded here.

With “in vitro translated full-length Rnf2 (from UniProt Q9CQJ4 1-336)”, the binding entry is given as “binds”.
